PubChem BioAssay AID493014 (National Center for Advancing Translational Sciences (NCATS), 2011)
Where “and” joins values, the source holds several entries; their conditions need not be identical. Equal entries are not always repeated. The list shows a part of the results. Further columns of the screen follow, without active or inactive calls. Most of these compounds were active or inconclusive in the main read-out, so they are no random draw. Potencies come from curve fits of mixed quality, noted in brackets.

Test: qHTS Assay to Find Inhibitors of Chronic Active B-Cell Receptor Signaling
Settings: ABC-DLBCL IkBa-CBG/CBR reporter, luminescence ratio (green luciferase fused to IkBa over red control in TMD8 lymphoma cells), 4 h
Procedure, shortened: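 Doxycycline induced both beetle luciferases in TMD8 lymphoma cells; IKK-driven degradation limits the IkappaBalpha-fused green signal, while red luminescence normalises for cell number and nonspecific effects. Compounds tested up to 46 uM, 4 hrs.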

[1] = measured here: CBR red luminescence, cell number
[2] = measured here: IkBa-CBG green luminescence

SMILES | AC50 [1] | AC50 [2]
Brc1ccc(/C=N/Nc2nc3ccccc3o2)cc1 | 11.2 µM [falling, partial curve] | 
COc1ccc(OC)c(-c2csc(NC(=O)Cc3ccc(OC)c(OC)c3)n2)c1 | 20 µM [falling, single point] | 
C=CCn1c(=O)c2ccccc2n2c(SCC(C)=O)nnc12 | 3.16 µM [falling, single point] | 
Cc1ccc(N=Cc2c(O)c3ccccc3oc2=O)cc1F | 0.794 µM [falling, full curve] | 
O=C(Nc1cccc(Cl)c1)c1ccncc1 | 14.6 µM [rising, single point] | 
Cc1cc(Cl)n2ncc(-c3ccccc3)c2n1 | 12.6 µM [falling, single point] | 
O=C(CNc1ccc(Cl)cc1)c1ccc(Br)cc1 | 31.6 µM [rising, single point] | 
COc1ccc(/C=C/C=C2\N=C(SC)SC2=O)cc1 | 5.17 µM [rising, partial curve] | 
N#Cc1ccsc1NC(=O)CN1CCN(S(=O)(=O)c2cc(Cl)ccc2Cl)CC1 | 4.61 µM [rising, full curve, poor fit] | 
CCC(c1nnnn1C1CCCC1)N(Cc1cccs1)Cc1cc2cccc(C)c2[nH]c1=O (centres undefined) | 3.16 µM [falling, full curve] | 
C=C1C(=O)O[C@H]2C1CC[C@@](C)(O)C13C=CC(C)(C21)C1(C3)C(=O)O[C@@H]2C3C(C)=CCC3[C@](C)(O)C[C@H](OC(C)=O)C21 (some centres undefined) | 18.4 µM [falling, single point] | 
O=C(NC1CC1)C1CCN(C2CCN(C(=O)/C=C/c3cccs3)CC2)CC1 | 35.5 µM [falling, single point] | 
CC(C)=C1SC(N2CCN(Cc3ccccc3)CC2)=NC1=O | 0.316 µM [falling, full curve, poor fit] | 
COc1ccc(NS(=O)(=O)c2ccc(C)c(NC(=O)c3ccc(C)c(S(=O)(=O)N4CCOCC4)c3)c2)cc1 | 2.91 µM [rising, single point] | 
CC1=Nc2cc(C(=O)NC3CCCC3)ccc2Sc2ccc(Cl)cc21 | 3.55 µM [rising, full curve] | 7.94 µM [falling, partial curve]
CCOC(=O)c1cnn(-c2cc(Oc3ccccc3C)ncn2)c1N | 29.1 µM [rising, single point] | 
Cc1[nH]c2ccccc2c1/C=N/Nc1ccccc1[N+](=O)[O-] | 5.01 µM [rising, full curve, poor fit] | 
O=C(CN1CCN(S(=O)(=O)c2ccc(Br)cc2)CC1)N/N=C/c1cc([N+](=O)[O-])ccc1Cl |  | 29.1 µM [rising, partial curve, poor fit]
C=CCNC(=O)c1onc(CSc2ccccc2C)c1C(=O)O | 8.91 µM [falling, partial curve] | 
c1ccc(-c2nnc(-c3ccccn3)nc2NC2CCCCC2)cc1 | 18.4 µM [falling, single point] | 
COc1ccc(Cl)cc1NC(=O)CC(C)c1ccccc1 (centres undefined) | 0.058 µM [rising, full curve, poor fit] | 

SMILES | AC50 [1] | AC50 [2]
CCc1ccc(OC)c(-c2csc(N)n2)c1 | 6.31 µM [falling, single point] | 
Cc1cc(=O)n2[nH]c(-c3ccc(C(C)(C)C)cc3)cc2n1 | 164 nM [falling, full curve, poor fit] and 5.62 µM [rising, full curve, poor fit] | 
CC(Sc1nnc2ccccn12)C(=O)NCc1ccc2c(c1)OCO2 (centres undefined) | 15.8 µM [falling, partial curve, poor fit] | 
Cc1ccccc1NC(=O)Cc1nnc(NC(=O)Nc2ccccc2F)s1 | 0.158 µM [falling, full curve, poor fit] | 
O=C1C=C(c2cnc3ccccc3c2)C[C@@H](c2ccc3c(c2)OCO3)C1 | 0.731 µM [rising, full curve] | 
OC(CNc1nc2ccccc2s1)c1ccccc1 (centres undefined) | 18.4 µM [falling, partial curve, poor fit] | 
Cc1ccc(Cl)cc1N1CCN(S(=O)(=O)c2cn(C)cn2)CC1 | 3.98 µM [rising, full curve, poor fit] | 
CC(NC(=O)/C(C#N)=C/c1ccc([N+](=O)[O-])o1)c1ccccc1 (centres undefined) | 22.4 µM [falling, single point] | 35.5 µM [rising, partial curve, poor fit]
Cc1cc(NC(=O)c2ccc(N3C(=O)C4C5C=CC(C5)C4C3=O)cc2)no1 (centres undefined) | 1.12 µM [falling, full curve, poor fit] | 0.562 µM [rising, full curve, poor fit]
ClC1(Cl)CC1Cn1c(C2CC2)nc2ccccc21 (centres undefined) | 35.5 µM [rising, single point] | 
COc1ccccc1CNC(=O)CN1C(=O)N(C)C2(CCCCC2)C1=O | 0.58 µM [rising, full curve, poor fit] | 
Cc1nn(C)c(C(=O)NN)c1Cl | 7.94 µM [falling, partial curve] | 
Nc1nc(-c2ccco2)nn1C(=O)c1ccc(F)cc1 | 1.12 µM [falling, partial curve] | 
Cc1cc(C(=O)Nc2nnc(-c3ccccc3)s2)no1 | 1 µM [falling, full curve] | 
COc1ccccc1NCCC(=O)OCC(=O)NC1CC1 | 29.1 µM [falling, single point] | 
COCCNc1nc(C)cc(-c2cc(C(=O)NC3CCCC3)on2)n1 | 4.47 µM [falling, partial curve] | 
O=C(NC12CC3CC(CC(C3)C1)C2)c1ccccc1O | 20.6 µM [rising, partial curve] | 
Cc1ccc(N2C(=O)CC(Cc3cccc(C)c3)C2=O)cc1 (centres undefined) | 0.1 µM [rising, full curve, poor fit] | 
CC(=O)Oc1ccc(-c2nc3ccccc3c(=O)o2)cc1 | 12.6 µM [falling, partial curve] | 
CCN1CCN(c2ccc(NC(=O)c3cc(S(=O)(=O)N4CCCC4)ccc3Cl)cc2)CC1 | 23.1 µM [rising, partial curve, poor fit] | 

Some of the entries so far, as a markdown table.

| SMILES | AC50 [1] | AC50 [2] |
| --- | --- | --- |
| Cc1ccccc1NC(=O)Cc1nnc(NC(=O)Nc2ccccc2F)s1 | 0.158 µM [falling, full curve, poor fit] |  |
| Nc1nc(-c2ccco2)nn1C(=O)c1ccc(F)cc1 | 1.12 µM [falling, partial curve] |  |
